Results are given in words; binding and its absence hold for the method and conditions named.
Biological target: PCSK9ΔCT (C-terminal truncation of PCSK9 lacking the CHRD, residues 1–454) (human) (UniProt Q8NBP7)
Test: co-IP; purified recombinant proteins, 3 μg/ml each, mixed at pH 6.0 in IP buffer; J16- or IC-coated protein A Dynabeads, 30 min; eluted by boiling; Western blot; both purified

Protein sequences, listed by entry. Tags and fused reporters are not part of them. Lines headed by an entry give the natural chain unless they say otherwise; changes in a name come on top. Residues count along the entry.
UniProt Q8NBP7, residues 31-454: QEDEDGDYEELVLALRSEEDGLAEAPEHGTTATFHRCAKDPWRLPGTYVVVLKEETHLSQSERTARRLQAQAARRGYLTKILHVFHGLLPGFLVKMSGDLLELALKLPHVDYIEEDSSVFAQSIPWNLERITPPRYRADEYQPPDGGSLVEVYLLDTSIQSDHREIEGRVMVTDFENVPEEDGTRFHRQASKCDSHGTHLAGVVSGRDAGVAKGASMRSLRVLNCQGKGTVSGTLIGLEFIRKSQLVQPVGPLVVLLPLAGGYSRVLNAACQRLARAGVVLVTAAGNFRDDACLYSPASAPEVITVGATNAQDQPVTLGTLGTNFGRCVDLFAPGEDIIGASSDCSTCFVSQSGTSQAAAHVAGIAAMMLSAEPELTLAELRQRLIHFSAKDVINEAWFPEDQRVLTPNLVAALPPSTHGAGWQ
UniProt Q06481, residues 32-692: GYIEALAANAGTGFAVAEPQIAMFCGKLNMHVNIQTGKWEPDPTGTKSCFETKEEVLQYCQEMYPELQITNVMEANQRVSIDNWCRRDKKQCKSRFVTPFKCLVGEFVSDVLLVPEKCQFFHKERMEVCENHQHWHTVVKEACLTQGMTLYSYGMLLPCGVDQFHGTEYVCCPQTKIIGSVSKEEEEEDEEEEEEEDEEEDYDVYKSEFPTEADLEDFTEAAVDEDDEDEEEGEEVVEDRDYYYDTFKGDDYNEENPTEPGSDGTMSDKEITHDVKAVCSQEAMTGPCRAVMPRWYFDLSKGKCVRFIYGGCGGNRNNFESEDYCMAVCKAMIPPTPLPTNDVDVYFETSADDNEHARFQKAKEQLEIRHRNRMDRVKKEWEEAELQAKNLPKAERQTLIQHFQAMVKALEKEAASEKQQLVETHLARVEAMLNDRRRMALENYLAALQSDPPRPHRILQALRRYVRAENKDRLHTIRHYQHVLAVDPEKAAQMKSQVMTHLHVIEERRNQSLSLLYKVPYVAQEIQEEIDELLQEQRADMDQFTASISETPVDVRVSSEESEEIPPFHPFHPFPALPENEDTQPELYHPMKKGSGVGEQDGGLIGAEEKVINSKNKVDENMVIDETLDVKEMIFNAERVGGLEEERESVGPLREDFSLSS
UniProt P05067, residues 18-699: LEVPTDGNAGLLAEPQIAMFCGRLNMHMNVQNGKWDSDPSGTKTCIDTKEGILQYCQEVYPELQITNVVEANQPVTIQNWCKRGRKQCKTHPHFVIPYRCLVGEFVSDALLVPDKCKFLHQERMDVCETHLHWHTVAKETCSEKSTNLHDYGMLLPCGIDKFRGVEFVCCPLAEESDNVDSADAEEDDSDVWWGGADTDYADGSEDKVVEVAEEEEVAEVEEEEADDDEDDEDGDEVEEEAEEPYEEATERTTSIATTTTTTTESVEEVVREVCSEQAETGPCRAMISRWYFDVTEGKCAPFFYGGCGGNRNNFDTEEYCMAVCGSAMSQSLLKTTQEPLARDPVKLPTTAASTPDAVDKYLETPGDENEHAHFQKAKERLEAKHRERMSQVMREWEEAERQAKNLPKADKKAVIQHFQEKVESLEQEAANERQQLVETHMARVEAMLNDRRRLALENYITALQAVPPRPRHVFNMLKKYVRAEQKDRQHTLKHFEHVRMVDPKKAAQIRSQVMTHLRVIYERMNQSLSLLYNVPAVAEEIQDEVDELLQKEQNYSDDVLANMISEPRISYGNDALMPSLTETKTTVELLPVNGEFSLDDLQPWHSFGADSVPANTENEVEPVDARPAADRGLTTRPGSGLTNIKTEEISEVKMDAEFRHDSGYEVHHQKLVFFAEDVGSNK

| binding | Substance |
| --- | --- |
| no binding (tested: 3 μg/ml) | APLP2-extracellular domain (ECD) (amino acids 1–692) (from UniProt Q06481 32-692) (domain or fragment) |
| no binding (tested: 3 μg/ml) | Amyloid precursor protein (APP)-ECD (amino acids 1–699) (from UniProt P05067 18-699) (domain or fragment) |

— article PMC3624461
